Experimental findings from publication doi:10.1101/2023.08.20.554005 are described below.

This assay has as its target T1, BirA*-Flag JUN WT (293T), P05412.
T1 chain: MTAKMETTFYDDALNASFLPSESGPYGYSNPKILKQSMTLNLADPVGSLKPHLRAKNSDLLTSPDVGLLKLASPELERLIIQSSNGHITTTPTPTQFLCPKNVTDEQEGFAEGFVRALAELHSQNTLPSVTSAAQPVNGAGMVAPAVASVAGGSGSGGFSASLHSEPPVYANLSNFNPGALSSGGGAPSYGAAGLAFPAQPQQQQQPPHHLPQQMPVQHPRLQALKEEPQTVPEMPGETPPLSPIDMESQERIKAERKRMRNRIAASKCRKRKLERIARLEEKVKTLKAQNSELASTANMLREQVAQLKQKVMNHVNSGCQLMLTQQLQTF
The assay is described as follows: co-IP. The note with it: remark: other sources report otherwise.

These are yes or no findings as the source states them, for the method shown. In cells and extracts the contact can be indirect. Some results given as binding are weak or reduced against the parent protein; the word gives no strength. Sequences can lack the tags named with a protein.

B1: HA-JUN WT, P05412 1-331 (protein)
chain: T1 chain
With B1, the binding result is “binds”.
